Measurements taken from the supplement of paper PMC10849652.
The other results are listed elsewhere or left out.

Protein sequences, listed by entry. Tags and fused reporters are not part of them. Lines headed by an entry give the natural chain unless they say otherwise; changes in a name come on top.
UniProt Q15021, whole entry, looked up: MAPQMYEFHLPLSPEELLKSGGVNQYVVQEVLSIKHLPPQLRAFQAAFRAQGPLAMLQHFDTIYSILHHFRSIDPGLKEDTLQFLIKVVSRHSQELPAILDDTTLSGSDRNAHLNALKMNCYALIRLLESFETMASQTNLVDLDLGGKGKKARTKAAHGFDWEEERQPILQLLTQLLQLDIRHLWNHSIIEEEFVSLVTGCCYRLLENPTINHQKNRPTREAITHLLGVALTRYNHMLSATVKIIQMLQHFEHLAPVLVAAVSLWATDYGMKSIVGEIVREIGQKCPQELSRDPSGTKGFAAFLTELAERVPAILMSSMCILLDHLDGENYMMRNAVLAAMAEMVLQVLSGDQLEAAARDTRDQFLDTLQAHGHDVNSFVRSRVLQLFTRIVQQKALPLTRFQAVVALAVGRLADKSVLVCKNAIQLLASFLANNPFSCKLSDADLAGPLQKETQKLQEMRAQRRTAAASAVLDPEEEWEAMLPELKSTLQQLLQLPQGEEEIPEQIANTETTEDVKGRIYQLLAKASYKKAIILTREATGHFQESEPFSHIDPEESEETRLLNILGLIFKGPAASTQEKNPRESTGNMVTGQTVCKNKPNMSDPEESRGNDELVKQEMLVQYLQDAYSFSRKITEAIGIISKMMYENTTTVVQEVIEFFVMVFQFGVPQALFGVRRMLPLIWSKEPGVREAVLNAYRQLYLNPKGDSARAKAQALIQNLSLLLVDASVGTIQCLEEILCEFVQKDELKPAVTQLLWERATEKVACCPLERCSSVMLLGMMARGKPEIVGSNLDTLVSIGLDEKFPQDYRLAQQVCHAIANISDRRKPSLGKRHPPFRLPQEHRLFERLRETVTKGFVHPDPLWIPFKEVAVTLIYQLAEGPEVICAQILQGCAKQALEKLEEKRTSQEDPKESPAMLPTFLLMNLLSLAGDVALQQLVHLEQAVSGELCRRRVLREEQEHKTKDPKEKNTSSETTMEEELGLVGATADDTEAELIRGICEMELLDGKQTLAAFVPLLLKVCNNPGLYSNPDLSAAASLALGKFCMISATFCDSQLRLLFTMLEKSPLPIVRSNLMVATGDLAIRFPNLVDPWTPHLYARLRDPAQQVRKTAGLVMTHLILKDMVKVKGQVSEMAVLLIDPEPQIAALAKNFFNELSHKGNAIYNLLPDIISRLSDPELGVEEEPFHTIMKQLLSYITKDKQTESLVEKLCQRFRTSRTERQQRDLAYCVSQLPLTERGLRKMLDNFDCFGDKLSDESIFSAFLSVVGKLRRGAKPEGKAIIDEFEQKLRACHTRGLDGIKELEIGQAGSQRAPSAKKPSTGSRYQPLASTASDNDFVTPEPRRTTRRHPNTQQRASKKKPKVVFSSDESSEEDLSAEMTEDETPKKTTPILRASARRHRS
UniProt Q8N6N6: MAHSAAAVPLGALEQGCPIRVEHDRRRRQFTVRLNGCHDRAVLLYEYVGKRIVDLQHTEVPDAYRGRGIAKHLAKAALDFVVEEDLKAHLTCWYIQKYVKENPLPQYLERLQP
UniProt P12829: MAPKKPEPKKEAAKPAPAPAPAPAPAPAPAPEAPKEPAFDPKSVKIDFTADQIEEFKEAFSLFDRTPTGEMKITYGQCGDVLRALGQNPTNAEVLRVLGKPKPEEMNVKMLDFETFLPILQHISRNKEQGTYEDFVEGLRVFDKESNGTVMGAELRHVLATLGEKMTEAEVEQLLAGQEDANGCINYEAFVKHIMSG
UniProt P42695: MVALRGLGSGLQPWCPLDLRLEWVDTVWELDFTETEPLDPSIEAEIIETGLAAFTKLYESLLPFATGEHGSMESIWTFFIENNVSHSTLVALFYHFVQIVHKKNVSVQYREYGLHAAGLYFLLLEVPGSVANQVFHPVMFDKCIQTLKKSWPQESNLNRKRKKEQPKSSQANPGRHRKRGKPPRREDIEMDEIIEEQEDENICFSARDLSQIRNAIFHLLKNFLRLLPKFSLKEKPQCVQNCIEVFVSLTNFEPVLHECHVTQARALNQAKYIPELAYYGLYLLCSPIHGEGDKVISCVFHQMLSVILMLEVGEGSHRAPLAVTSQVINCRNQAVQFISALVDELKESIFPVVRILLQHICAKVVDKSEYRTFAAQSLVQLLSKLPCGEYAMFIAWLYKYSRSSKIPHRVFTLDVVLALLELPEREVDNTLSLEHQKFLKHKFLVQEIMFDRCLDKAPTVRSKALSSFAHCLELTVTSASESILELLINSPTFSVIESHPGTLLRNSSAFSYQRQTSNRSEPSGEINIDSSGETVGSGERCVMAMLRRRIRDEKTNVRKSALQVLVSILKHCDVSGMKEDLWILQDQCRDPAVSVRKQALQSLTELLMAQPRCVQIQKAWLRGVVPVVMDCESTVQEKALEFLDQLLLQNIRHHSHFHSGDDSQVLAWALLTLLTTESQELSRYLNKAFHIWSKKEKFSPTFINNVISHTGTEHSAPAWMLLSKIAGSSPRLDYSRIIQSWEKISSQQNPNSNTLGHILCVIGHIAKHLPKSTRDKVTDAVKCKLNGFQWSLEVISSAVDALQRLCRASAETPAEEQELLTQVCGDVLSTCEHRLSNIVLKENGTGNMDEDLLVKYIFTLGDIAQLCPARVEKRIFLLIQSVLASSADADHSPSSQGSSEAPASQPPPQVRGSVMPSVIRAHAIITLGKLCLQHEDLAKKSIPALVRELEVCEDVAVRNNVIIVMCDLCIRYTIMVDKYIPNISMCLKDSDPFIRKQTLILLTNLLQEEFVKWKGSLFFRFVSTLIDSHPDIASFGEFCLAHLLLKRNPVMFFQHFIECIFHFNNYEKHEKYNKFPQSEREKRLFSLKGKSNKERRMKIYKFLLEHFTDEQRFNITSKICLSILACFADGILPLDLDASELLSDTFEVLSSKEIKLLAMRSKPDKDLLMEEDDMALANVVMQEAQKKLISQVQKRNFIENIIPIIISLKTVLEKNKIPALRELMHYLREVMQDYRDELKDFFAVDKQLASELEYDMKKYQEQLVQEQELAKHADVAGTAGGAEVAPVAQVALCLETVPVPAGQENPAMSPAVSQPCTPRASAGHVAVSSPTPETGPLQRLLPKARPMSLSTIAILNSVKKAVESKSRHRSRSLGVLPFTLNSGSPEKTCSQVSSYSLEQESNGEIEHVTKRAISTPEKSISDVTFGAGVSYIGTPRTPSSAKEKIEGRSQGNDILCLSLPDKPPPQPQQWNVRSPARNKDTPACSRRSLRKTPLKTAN
UniProt Q14596: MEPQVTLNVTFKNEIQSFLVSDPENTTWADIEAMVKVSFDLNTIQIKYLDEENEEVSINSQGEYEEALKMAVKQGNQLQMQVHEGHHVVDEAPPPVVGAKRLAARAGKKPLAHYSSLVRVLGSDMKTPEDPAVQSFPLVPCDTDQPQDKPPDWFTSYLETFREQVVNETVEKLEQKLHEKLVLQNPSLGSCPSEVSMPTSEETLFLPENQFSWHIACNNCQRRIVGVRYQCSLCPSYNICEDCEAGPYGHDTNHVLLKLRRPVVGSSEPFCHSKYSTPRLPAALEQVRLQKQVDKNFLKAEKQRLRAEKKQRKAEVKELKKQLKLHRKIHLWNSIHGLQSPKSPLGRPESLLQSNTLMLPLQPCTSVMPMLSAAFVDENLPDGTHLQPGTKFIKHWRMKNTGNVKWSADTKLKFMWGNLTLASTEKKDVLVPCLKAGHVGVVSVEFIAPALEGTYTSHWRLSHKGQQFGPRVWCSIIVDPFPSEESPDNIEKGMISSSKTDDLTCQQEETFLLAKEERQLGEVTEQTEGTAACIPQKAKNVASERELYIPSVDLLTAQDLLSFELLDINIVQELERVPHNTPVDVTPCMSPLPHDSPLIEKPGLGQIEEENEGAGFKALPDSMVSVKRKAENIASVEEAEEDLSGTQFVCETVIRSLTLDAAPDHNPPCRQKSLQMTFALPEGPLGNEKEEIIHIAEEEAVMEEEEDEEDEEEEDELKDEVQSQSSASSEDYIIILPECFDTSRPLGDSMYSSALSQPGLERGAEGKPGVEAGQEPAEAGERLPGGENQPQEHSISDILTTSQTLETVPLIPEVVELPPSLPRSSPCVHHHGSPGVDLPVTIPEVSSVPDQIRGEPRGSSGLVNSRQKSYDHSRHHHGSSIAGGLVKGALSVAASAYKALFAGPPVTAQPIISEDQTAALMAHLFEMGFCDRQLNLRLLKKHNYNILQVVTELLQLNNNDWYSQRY
UniProt Q9Y5N5: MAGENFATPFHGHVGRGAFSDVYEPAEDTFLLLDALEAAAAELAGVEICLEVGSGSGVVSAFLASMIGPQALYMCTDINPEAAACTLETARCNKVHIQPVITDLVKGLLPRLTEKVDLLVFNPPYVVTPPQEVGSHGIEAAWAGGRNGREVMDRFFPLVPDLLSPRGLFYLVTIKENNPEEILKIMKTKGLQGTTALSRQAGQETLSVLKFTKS
UniProt P55209: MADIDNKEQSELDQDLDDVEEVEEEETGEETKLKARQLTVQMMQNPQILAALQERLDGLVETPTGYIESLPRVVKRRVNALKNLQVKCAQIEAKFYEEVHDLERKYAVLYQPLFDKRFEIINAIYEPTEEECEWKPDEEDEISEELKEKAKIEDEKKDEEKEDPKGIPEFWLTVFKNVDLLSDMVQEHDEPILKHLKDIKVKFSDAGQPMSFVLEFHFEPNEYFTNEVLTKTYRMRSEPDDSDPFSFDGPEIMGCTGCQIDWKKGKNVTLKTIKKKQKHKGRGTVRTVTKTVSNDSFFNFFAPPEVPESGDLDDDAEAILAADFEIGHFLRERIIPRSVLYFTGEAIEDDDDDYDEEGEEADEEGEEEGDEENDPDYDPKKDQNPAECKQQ
UniProt O43639, whole entry, looked up: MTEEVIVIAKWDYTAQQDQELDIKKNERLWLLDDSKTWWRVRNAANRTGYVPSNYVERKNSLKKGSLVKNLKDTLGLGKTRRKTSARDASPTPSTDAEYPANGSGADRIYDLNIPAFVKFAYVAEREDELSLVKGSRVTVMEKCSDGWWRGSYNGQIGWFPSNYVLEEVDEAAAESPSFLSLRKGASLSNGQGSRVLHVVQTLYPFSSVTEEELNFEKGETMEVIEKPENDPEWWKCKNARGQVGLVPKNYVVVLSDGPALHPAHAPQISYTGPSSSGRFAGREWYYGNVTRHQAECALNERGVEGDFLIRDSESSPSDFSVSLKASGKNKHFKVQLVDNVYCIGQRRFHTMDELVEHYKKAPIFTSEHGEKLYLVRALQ
UniProt O95544: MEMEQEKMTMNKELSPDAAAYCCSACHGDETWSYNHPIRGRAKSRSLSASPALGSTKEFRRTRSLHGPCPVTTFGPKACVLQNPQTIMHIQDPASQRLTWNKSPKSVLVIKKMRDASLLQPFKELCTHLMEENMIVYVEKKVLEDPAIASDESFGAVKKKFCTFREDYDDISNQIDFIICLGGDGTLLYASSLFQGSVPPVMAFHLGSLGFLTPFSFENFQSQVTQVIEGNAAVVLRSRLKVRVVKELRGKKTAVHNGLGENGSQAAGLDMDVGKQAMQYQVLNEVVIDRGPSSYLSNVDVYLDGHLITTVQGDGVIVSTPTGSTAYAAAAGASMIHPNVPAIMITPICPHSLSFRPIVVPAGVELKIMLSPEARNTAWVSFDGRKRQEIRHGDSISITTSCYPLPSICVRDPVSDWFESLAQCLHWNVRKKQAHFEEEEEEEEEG
UniProt Q9BXJ9: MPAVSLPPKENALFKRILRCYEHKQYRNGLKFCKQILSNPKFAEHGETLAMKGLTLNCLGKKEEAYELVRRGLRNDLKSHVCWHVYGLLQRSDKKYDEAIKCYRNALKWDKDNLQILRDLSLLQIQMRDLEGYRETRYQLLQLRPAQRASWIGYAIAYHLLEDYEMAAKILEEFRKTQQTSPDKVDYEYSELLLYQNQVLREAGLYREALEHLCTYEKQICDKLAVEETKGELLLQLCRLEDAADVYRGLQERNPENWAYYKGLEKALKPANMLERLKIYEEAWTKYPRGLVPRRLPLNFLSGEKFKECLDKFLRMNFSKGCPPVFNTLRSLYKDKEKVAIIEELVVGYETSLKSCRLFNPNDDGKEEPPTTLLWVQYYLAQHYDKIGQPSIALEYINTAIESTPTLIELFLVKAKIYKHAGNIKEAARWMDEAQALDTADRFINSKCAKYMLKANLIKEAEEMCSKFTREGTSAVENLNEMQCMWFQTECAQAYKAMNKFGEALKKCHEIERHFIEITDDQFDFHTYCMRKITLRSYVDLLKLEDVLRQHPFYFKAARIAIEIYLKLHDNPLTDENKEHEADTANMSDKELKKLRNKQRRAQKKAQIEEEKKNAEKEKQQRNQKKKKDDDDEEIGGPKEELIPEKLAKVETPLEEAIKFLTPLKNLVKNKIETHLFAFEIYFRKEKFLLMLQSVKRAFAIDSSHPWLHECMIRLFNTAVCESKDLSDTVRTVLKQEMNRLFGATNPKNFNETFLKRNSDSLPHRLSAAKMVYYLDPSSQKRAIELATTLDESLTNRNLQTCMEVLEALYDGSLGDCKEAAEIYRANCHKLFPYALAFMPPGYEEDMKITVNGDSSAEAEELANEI

Experiments:
Assay in all cases: log2 fold change, soluble protein after heating vs DMSO (PISA); higher = thermal stabilisation; K562 lysate, 10 uM; active = over 0.2 and 3.5 SD of the protein, either way, in both replicates (recomputed)
[1] = compound: C1=CC=C(C=C1)[C@H](COC2=CC3=C(C=C2)NC(=O)N3)NC(=O)C4=CC=CN(C4=O)CC5=CC(=C(C=C5)F)F
Outline: (§1)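 Quantification was by TMTpro 16plex LC-MS/MS with equalised channel sums, applied to the supernatant after 21,000xg for 90 min. Samples were crude K562 extract at 1 mg/mL protein in PBS pH 7.4 with 1 mM MgCl2, treated with 10 μM compound for 30 min, heated for 3 min across 48°C-58°C, pooled and brought to 0.5% NP-40 at 4°C. Values are log-two fold changes in thermal stability relative to solvent controls, from duplicates.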

[2] = compound: CC1=C(SC2=C1C(=N[C@H](C3=NN=C(N32)C)CC(=O)N)C4=CC=C(C=C4)Cl)C
Outline: as §1

[3] = compound: CC1=C2C(=CC=C1)N=C(N(C2=O)C3=CC=CC=C3C)CN4C=NC5=C(N=CN=C54)N
Outline: as §1

[4] = compound: Cc1sc2c(c1C)C(c1ccc(Cl)cc1)=N[C@@H](CC(=O)OC(C)(C)C)c1nnc(C)n1-2
Outline: as §1

[5] = compound: c1ccc([C@@H]2C[C@H]2NC2CCNCC2)cc1
Outline: as §1

Measured: log2 fold change

NCAPD2 (UniProt Q15021)
inactive: [1] -0.023 | [2] 0.028 | [3] 0.026 | [4] 0.008 | [5] 0.022

NATD1 (UniProt Q8N6N6)
inactive: [1] -0.055 | [2] 0.062 | [3] 0.093 | [4] -0.093 | [5] -0.001

MYL4 (UniProt P12829)
inactive: [1] 0.01 | [2] -0.104 | [3] -0.045 | [4] -0.015 | [5] -0.026

NCAPD3 (UniProt P42695)
inactive: [1] 0.028 | [2] -0.007 | [3] 0.046 | [4] -0.005 | [5] 0.016

NBR1 (UniProt Q14596)
inactive: [1] -0.007 | [2] 0.118 | [3] -0.049 | [4] -0.02 | [5] 0.212

N6AMT1 (UniProt Q9Y5N5)
inactive: [1] -0.046 | [2] -0.086 | [3] -0.046 | [4] -0.011 | [5] 0.052

NAP1L1 (UniProt P55209)
inactive: [1] 0.037 | [2] -0.014 | [3] -0.019 | [4] 0.007 | [5] -0.018

NCK2 (UniProt O43639)
inactive: [1] -0.083 | [2] -0.086 | [3] -0.014 | [4] 0.039 | [5] -0.067

NAA15, A0A0B4J1W3
inactive: [1] -0.004 | [2] -0.005 | [3] -0.063 | [4] 0.009 | [5] 0.01

NADK (UniProt O95544)
inactive: [1] 0.074 | [2] -0.009 | [3] 0.061 | [4] -0.06 | [5] -0.025

NAA15 (UniProt Q9BXJ9)
inactive: [1] -0.003 | [2] -0.002 | [3] 0.009 | [4] 0.013 | [5] 0.017
